These are yes or no findings as the source states them, for the method shown. Binding seen in cells or lysates may run through a third protein. Some binding calls cover weakened binding; strength is not graded here.
Target: PRPF31-3Flag (UniProt Q8WWY3)
Test: co-IP

Chains of the proteins cited; added tags and fusions are not shown.
UniProt Q8WWY3: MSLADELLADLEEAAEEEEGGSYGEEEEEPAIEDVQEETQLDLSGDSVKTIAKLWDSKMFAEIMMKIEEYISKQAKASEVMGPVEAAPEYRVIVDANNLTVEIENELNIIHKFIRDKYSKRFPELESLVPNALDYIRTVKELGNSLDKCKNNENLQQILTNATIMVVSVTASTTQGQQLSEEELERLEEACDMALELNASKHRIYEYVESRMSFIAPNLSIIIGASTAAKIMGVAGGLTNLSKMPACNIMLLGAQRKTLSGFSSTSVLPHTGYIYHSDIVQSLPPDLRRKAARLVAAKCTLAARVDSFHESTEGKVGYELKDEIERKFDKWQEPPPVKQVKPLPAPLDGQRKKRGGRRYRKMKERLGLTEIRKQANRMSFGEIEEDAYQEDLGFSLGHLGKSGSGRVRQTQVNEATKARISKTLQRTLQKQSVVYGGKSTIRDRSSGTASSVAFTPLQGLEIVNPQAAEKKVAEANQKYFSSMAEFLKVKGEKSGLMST

B1: PRPH2-mCherry (protein, UniProt P23942 1-346)
chain: MALLKVKFDQKKRVKLAQGLWLMNWFSVLAGIIIFSLGLFLKIELRKRSDVMNNSESHFVPNSLIGMGVLSCVFNSLAGKICYDALDPAKYARWKPWLKPYLAICVLFNIILFLVALCCFLLRGSLENTLGQGLKNGMKYYRDTDTPGRCFMKKTIDMLQIEFKCCGNNGFRDWFEIQWISNRYLDFSSKEVKDRIKSNVDGRYLVDGVPFSCCNPSSPRPCIQYQITNNSAHYSYDHQTEELNLWVRGCRAALLSYYSSLMNSMGVVTLLIWLFEVTITIGLRYLQTSLDGVSNPEESESESQGWLLERSVPETWKAFLESVKKLGKGNQVEAEGADAGQAPEAG
In the case of B1, the binding is reported as “binds”.

From doi:10.1101/2022.06.26.497680
